Laboratory results: patent US20060205808A1, “Anti-inflammatory and cure for ageing, Alzheimer's disease on phloroglucinol derivatives” (Kaohsiung Medical University, priority 2005, published 2006)
Some of these results come from one statement about several compounds together. For at least one compound, name, drawing or mass did not settle the structure.

What was measured:
Assay type in all cases: cell-based
rat neutrophils [1] = experiment: PMA-induced superoxide anion generation in rat neutrophils; conditions: PMA (3 nM)
Protocol: (§1) FMLP (0.3 μM)/CB (5 μg mL^−1) or phorbol myristate acetate (PMA) (3 nM) stimulated superoxide anion generation in rat neutrophils. […] Trifluoperazine was used in this experiment as a positive control.

[2] = test system: RAW 264.7 macrophage-like cells; experiment: NO production (nitrite accumulation, Griess reaction) in RAW 264.7 cells in response to LPS; conditions: LPS (1 μg mL^−1)
Protocol: (§2) Treatment of RAW 264.7 macrophage-like cells with LPS (1 μg mL^−1) or N9 microglial cells with LPS (10 ng mL^−1)/IFN-γ (10 U mL^−1) for 24 h induced NO production as assessed by measuring the accumulation of nitrite, a stable metabolite of NO, in the media, based on the Griess reaction. […] 1400 W was used in this experiment as a positive control.

N9 microglial cells = experiment: NO production (nitrite accumulation, Griess reaction) in N9 cells in response to LPS/IFN-γ; conditions: LPS (10 ng mL^−1)/IFN-γ (10 U mL^−1)
Protocol: as §2

mast cells = experiment: mast cell degranulation stimulated with compound 48/80; conditions: compound 48/80 (10 μg mL^−1); data not shown
rat neutrophils [3] = experiment: fMLP/CB-induced superoxide anion generation in rat neutrophils; conditions: fMLP/CB (5 μg mL^−1)
Protocol: as §1

Row | Molecule | effect on PMA-induced superoxide anion generation (in words) (rat neutrophils [1]) | effect on production of NO induced by LPS in RAW 264.7 cells (in words) [2] | effect on production of NO induced by LPS/IFN-γ in N9 cells (in words) (N9 microglial cells) | inhibition of mast cell degranulation (in words) (mast cells) | inhibitory effect on fMLP/CB-induced superoxide anion generation (in words) (rat neutrophils [3])
1 | CC(C)=CCC1CC2(CC=C(C)C)C(=O)C(C(=O)C(C)C)(C(=O)C(C=CC(C)(C)O)=C2O)C1(C)C (stereo not shown) [Compound 1, Garcinielliptone F] | no appreciable effect | did not show significant effects | did not show significant effects | did not cause a significant inhibition | –
2 | CC(C)=CCC1CC23CC(O)C(C)(C)OC2(O)C(O)(CCC(C)(C)O)C(=O)C(C(=O)C(C)C)(C3=O)C1(C)C (stereo not shown) [Compound 3, garcinielliptone H] | no appreciable effect | – | – | did not cause a significant inhibition | –
3 | CC(C)=CCC1CC2(CC=C(C)C)C(=O)OC(C(=O)C(C)C)(C2=O)C1(C)C (stereo not shown) [Compound 5, garcinielliptone J] | no appreciable effect | did not show significant effects | did not show significant effects | did not cause a significant inhibition | no significant effects
4 | Garcinielliptone I [Compound 4] | no appreciable effect | – | – | did not cause a significant inhibition | no significant effects
5 | garcinielliptone G [Compound 2] | no appreciable effect | did not show significant effects | did not show significant effects | did not cause a significant inhibition | no significant effects
